## Library screen at single concentrations

Sequences of proteins named here, by UniProt entry; tags and fusion partners are left off. Residues count along the entry.
UniProt I6X8D2, whole entry: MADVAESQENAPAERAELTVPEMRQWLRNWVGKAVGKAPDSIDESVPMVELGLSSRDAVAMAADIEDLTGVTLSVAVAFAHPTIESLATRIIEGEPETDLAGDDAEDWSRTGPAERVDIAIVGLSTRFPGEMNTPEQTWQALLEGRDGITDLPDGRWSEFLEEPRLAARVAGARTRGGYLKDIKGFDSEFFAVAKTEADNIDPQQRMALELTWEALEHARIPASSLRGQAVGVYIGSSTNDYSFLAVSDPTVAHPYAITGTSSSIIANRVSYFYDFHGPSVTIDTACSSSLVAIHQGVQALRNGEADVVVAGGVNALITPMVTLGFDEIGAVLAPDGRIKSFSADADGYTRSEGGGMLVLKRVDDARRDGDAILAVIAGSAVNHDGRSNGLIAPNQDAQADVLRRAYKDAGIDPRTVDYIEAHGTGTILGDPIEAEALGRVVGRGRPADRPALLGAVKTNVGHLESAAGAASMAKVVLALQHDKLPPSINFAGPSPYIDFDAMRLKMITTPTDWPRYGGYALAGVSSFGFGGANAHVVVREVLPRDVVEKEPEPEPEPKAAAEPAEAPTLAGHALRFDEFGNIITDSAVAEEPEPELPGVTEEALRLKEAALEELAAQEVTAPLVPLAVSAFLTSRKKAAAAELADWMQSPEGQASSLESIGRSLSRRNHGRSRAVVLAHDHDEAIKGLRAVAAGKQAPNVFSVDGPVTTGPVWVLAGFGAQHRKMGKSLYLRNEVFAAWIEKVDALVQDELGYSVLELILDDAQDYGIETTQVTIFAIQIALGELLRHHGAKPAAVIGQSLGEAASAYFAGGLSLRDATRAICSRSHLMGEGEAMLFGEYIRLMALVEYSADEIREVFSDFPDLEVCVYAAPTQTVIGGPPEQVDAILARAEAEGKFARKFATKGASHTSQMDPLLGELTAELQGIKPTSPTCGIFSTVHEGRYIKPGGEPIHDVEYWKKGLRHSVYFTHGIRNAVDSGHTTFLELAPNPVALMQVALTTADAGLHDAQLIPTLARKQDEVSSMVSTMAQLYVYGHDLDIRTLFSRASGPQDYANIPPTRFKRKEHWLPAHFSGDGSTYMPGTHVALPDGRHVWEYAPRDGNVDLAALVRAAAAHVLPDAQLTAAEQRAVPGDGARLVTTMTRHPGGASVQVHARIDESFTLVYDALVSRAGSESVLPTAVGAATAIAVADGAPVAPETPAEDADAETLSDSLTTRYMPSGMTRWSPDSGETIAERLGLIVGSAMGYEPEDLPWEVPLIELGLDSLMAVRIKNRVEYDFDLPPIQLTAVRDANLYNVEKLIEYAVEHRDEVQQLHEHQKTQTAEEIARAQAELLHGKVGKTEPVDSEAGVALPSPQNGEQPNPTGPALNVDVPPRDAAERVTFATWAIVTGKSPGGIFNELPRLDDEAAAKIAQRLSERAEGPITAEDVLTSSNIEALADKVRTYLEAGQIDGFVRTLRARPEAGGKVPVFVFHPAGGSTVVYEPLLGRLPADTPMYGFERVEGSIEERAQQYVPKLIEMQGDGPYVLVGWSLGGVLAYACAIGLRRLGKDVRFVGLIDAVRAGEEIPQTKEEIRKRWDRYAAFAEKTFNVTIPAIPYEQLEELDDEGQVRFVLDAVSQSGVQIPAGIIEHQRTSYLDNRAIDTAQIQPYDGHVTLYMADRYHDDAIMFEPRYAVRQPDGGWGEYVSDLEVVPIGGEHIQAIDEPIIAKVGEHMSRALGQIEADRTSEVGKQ
UniProt Q8IDJ8, 1-583: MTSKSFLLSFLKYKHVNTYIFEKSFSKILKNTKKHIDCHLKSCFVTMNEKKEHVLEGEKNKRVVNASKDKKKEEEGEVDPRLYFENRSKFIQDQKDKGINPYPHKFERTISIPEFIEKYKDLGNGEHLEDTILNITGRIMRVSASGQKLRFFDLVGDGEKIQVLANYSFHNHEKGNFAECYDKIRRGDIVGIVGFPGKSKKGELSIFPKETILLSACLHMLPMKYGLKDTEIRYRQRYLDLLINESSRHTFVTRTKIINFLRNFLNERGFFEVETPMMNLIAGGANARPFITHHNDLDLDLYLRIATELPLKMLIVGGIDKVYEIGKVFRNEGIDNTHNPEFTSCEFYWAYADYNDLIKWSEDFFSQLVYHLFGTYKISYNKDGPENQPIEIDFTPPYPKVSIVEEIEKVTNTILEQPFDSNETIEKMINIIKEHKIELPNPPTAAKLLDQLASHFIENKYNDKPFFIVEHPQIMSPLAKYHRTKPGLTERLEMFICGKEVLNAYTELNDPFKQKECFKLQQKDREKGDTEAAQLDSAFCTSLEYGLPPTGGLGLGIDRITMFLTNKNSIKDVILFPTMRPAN
UniProt P9WNZ1, whole entry: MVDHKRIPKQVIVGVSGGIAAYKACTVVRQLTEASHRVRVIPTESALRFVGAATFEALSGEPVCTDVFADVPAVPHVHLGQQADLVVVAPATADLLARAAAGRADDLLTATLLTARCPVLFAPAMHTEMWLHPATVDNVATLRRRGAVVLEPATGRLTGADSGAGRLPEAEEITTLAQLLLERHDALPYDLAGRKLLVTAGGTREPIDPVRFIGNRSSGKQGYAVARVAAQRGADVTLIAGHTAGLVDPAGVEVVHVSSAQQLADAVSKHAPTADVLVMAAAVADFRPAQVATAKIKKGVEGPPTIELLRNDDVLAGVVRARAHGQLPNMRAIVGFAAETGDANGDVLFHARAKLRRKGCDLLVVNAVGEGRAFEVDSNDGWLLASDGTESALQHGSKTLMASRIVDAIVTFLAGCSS

Data taken from ChEMBL document CHEMBL3988442, “University of Dundee, Small-Polar-MMV Screening Library” (2021).

Pks13 thioesterase: 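Enzyme assay of the thioesterase domain of polyketide synthase 13; the read-out is not stated. Target: Polyketide synthase Pks13, Mycobacterium tuberculosis (UniProt I6X8D2). Concentration: 30 µM. The record gives no direction; the compounds picked for IC50 retests had high values, so higher reads as stronger inhibition. About 67,000 compounds were tested under these conditions; 0.46% (about 300) showed 50% or more at least once.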
PfKRS1: 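Enzyme assay of the cytosolic lysyl-tRNA synthetase in 384-well plates, read by luminescence. Target: Lysine-tRNA ligase, Plasmodium falciparum 3D7 (UniProt Q8IDJ8). Concentration: 30 µM. Higher reads as stronger inhibition, judged from the few compounds that gave an IC50. Size under these conditions: about 69,000 compounds, about 49 of them at 50% or above in at least one test.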
CoaBC: 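Coenzyme A biosynthesis protein CoaBC, Mycobacterium tuberculosis (UniProt P9WNZ1). Enzyme assay of CoaBC with a phosphate dye (Biomol Green) read at 650 nm. Concentration: 30 µM. Direction is inferred from only a few compounds that gave an IC50; most scored high, so higher reads as stronger inhibition. Most strong results did not repeat in a second test. About 67,000 compounds were tested under these conditions; 0.06% (about 40) showed 50% or more at least once.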

Each number is a percent effect as filed.
How 0% and 100% were set is not recorded. Most values in the screen are low, and negative values occur.
The compounds are a random part of those screened.
A dash means the value is not listed here; it may have been measured.

| compound | Pks13 thioesterase | PfKRS1 | CoaBC |
|---|---|---|---|
| `CCc1n[nH]c(C2CN(C(=O)c3nc(C)n4ccccc34)CCO2)n1` (stereo unspecified) | 82.97% | 6.847% | 2.108% |
| `Cc1cc2cc(C(=O)N3C[C@H](O)[C@]4(CCCO4)C3)ccc2o1` | -2.137% | 3.889% | 0.9709% |
| `CN(C)C(=O)CCNC(=O)NCc1ccc(Br)cc1Cl` | -3.966% | -0.9897% | -1.229% |
| `Fc1ccc(OCc2nnc([C@H]3CCN(Cc4cccnc4)C3)o2)cc1` | -0.9669% | 6.837% | 3.386% |
| `CCN(Cc1noc(CC(C)C)n1)Cc1ncccc1C(=O)O` | -1.26% | 8.367% | 5.03% |
| `CC(C)Oc1cc(N2C[C@@H](C)O[C@@H](C)C2)nc(N)n1` | -13.4% | 1.711% | -1.919% |
| `Cc1cc2c(cc1C)OC(C(=O)NCCNC(=O)C1CCCC1)C2` (stereo unspecified) | -15.9% | -1.889% | 6.198% |
| `Cc1cccnc1[C@H](C)NC(=O)Cc1cc2c(cc1Cl)OCCO2` | -41.78% | 0.8315% | 4.567% |
| `Cc1csc(N2CCN(Cc3cnc4c(c3)c(C)nn4C)CC2)n1` | -2.276% | -1.057% | -0.6361% |
| `Cc1ccc(-c2ccnc(N(C)CC3CCCO3)n2)c(C)n1` (stereo unspecified) | -14.37% | 2.98% | 7.407% |
| `CC(=O)N1CCO[C@@H]2CN(S(=O)(=O)c3cccnc3)C[C@@H]2C1` | -3.552% | 5.395% | 2.303% |
| `Cc1nccc(N2CCCC2CCNS(C)(=O)=O)n1` (stereo unspecified) | -7.511% | -0.4729% | 3.497% |
| `O=C(CC1CN(Cc2ccccc2)CCO1)Nc1ccsc1` (stereo unspecified) | -21.56% | 3.758% | 3.046% |
| `Cc1cc(NC(=O)CNC(C)(C)c2nc(C)c(C)s2)no1` | -10.57% | 0.7364% | 2.885% |
| `Cc1cc(NC(=O)NCC(O)c2ccc(F)c(F)c2)n(C)n1` (stereo unspecified) | -31.93% | -0.08005% | 5.627% |
| `c1cc(CN2CCC3(CCOCC3COCC3CC3)CC2)co1` (stereo unspecified) | -27.92% | 0.4818% | 4.835% |
| `OC(CN1CCCCCCC1)c1ccc(OC(F)(F)F)cc1` (stereo unspecified) | -7.142% | -1.532% | -5.239% |
| `Cc1ccc(CN2CC[C@H]3O[C@@H](C(=O)N4CCCO4)CC[C@H]32)s1` | -20.31% | 3.376% | 9.446% |
| `Cc1nnc(CN(C)CC2CCCN2c2cccnn2)o1` (stereo unspecified) | -1.096% | 1.291% | 10.74% |
| `CCc1nnc2n1CCN(C(=O)C(C)Oc1cccc(C#N)c1)C2` (stereo unspecified) | -17.71% | 4.487% | -17.62% |
| `COc1ccc(-n2cc(CNC(=O)c3cscn3)nn2)cc1` | -2.503% | -1.587% | 5.524% |
| `O=C(NCC1CCN(Cc2ccsc2)CC1)NC1CC1` | -11.26% | 4.898% | 1.901% |
| `c1cc(CN2C[C@@H]3OCCN(CC4CC4)[C@@H]3C2)n[nH]1` | -4.706% | -1.695% | 4.332% |
| `O=c1[nH][nH]cc1-c1ccnc(NCCCN2CCOCC2)n1` | 19.83% | 4.859% | 2.53% |
| `CNS(=O)(=O)c1ccc(CNC(=O)N(CC(C)C)C(C)C)cc1` | 10.54% | 1.117% | 2.945% |
| `COc1ccc(CNC(=O)NC2CCN(c3ccccc3)C2=O)cc1` (stereo unspecified) | -8.693% | 3.348% | 3.62% |
| `CCC(=O)N1C[C@@H](C(=O)NC)[C@H](c2ccnc(N3CCCC3)n2)C1` | -4.199% | 0.8983% | -3.196% |
| `COc1ncccc1C(=O)NC1(c2cccc(F)c2)CCOCC1` | 7.606% | 0.3273% | 4.507% |
| `O=C(CN1CCc2ccccc2C1)NCc1ccco1` | - | -2.919% | 1.276% |
| `COc1ccc(CS(=O)(=O)CC(=O)NCC2CC2)cc1F` | -39.55% | 12.69% | 3.374% |
| `CN(C(=O)NCCCN1CCCC1)C1CCN(c2ccccc2)C1=O` (stereo unspecified) | -3.851% | -3.432% | 1.064% |
| `Cc1nccn1C1CCCN(C(=O)c2cccc(OCC(N)=O)c2)C1` (stereo unspecified) | -27.55% | -1.037% | 2.389% |
| `O=C(NCc1ccccc1)[C@@H]1Cc2[nH]cnc2CN1CC1CC1` | - | 5.908% | 2.032% |
| `Cc1c(CNC(=O)c2cn(CCC3CCCCN3)nn2)cnn1C` (stereo unspecified) | -26.56% | 0.7698% | -8.351% |
| `Cc1nc(CN2CCc3cncnc3C2)oc1C` | -4.806% | 5.205% | 12.15% |
| `O=C(NCc1ccco1)N(CCCO)C1CCCc2ccccc21` (stereo unspecified) | -7.437% | 0.3093% | -0.9091% |
| `O=c1[nH]c2ncccc2n1C1CCCC1` | -15.31% | 3.908% | 8.285% |
| `Cc1ccc(N2CC[C@H]3CO[C@H](CN(C)Cc4ccco4)[C@H]3C2)nn1` | 8.991% | 3.789% | 6.424% |
| `CCOC(=O)CSc1nnc([C@@H](N)CC(C)C)o1` | -11.55% | 8.123% | 0.6904% |
| `CCNC(=O)NCc1cccc(N2CC=CC2)c1` | -28.6% | 6.633% | 1.518% |
| `CCn1ccc(C(=O)Nc2ccc3c(c2)C(C)(C)C(=O)N3C)n1` | 7.245% | 6.279% | 5.949% |
| `O=C(NCCNCC1CNc2ccnn2C1)c1ccc(F)cc1` (stereo unspecified) | -33.53% | 1.064% | -34.75% |
| `COC(C)(C)C(=O)N[C@H]1CN(c2nccnc2N(C)C)C[C@@H]1C(C)C` | -10.97% | 3.754% | 3.226% |
| `Cc1ccc(C2CN(Cc3cnc(-c4cccnc4)s3)CCO2)o1` (stereo unspecified) | -7.268% | 0.9476% | 1.489% |
| `COc1cccc(-c2cnnc(N(C)CCC3CCCCO3)n2)c1` (stereo unspecified) | -36.55% | 1.694% | -4.536% |
| `CN(C)c1nccnc1N1CC[C@@]2(O)CCNC[C@H]2C1` | 12.86% | 0.699% | 10.33% |
| `CC(C)N(C)Cc1cc(=O)n2c(n1)CN(C(=O)c1ccnnc1)CCC2` | 13.3% | 3.494% | 2.195% |
| `CN(CCc1cnn(C)c1)C(=O)C1COc2ccccc2C1` (stereo unspecified) | -2.212% | 0.9843% | 3.498% |
| `Cc1cc(CN2CCC3(CC2)C(=O)NCCN3CC2CC2)oc1C` | -7.213% | 5.383% | -2.231% |
| `O=C(Nc1ccc2c(c1)OCO2)N1CCN(CCc2ccccc2)CC1` | -54.81% | 0.8636% | 3.975% |
| `Cc1ncsc1-c1nnc(C2CCN(Cc3ccc(Cl)cc3)CC2)o1` | -21.65% | 2.155% | 4.854% |
| `CNC(=O)c1nc2c(s1)CCN(C(=O)c1cccc(OC)c1)CC2` | 1.652% | 10.23% | 2.28% |
| `COCCn1ccnc1C1CCCN(C(=O)c2ccccc2C#N)C1` (stereo unspecified) | 4.916% | 5.592% | -3.426% |